Article PMC8385146
Results are given in words; binding and its absence hold for the method and conditions named. For some assays here: A result given as binding can be weak or reduced; the word gives no strength. Where a sequence is shown, tags or fusion partners need not be part of it.

How the values were obtained:
[1] = molecular target: zinc finger (ZF) domain of SWI3B fused with BD (Arabidopsis thaliana); test: two-hybrid; directed test in yeast AH109; bait pGBKT7, prey pGADT7; growth on SD/-L-W-A-H; liquid β-galactosidase assay with ONPG
[2] = molecular target: leucine zipper (LZ) domain of SWI3B fused with BD (Arabidopsis thaliana); test: as above

binding [1]: no binding
binding [2]: binds
B1: Leaf and Flower Related (LFR), full length, fused with AD (protein, UniProt Q9LS90 1-460)
chain: MQKRELGKSGGNSGGSSGPPAKRGRPFGSTSANSAAAAAAAAAADAMSPSALLGPSLLVHNSFVEQNNRRIVLALQSGLKSEVTWALNTLTLLSFKEKEDIRRDVMPLAKIAGLLDALLLIIDDWRDIALPKDLTRGTRVRTLGTNASVTGFGNEYDALASIQPPGSGIGSSAAEALGKKSTGKHQSSQWWMEEDGLFNLDDEGRSEKQMCAIAASNVIRNFSFMPDNEVVMAQHRHCLETVFQCIHDHMTEDEELVTNSLETIVNLAHLMDLRIFSSLKQSYININEKKAVQAVVGILNSSVKAWNCAAAELLGRLIINPDNEPFISPLIPQIHKRLIDLLSIQAVDAQAAAVGALYNLVEVNMDCRLKLASERWAVDRLLKVIKTPHPVPEVCRKAAMILENLVSEPQNRGLLLAYENAFAELLFQEGKYSDSFARILYELTARSNSRVASARGIWGM
